# Reference: publication PMC12478159
# Chains of the proteins cited; added tags and fusions are not shown. Residues count along the entry.
# UniProt Q6RJQ3, residues 26-338: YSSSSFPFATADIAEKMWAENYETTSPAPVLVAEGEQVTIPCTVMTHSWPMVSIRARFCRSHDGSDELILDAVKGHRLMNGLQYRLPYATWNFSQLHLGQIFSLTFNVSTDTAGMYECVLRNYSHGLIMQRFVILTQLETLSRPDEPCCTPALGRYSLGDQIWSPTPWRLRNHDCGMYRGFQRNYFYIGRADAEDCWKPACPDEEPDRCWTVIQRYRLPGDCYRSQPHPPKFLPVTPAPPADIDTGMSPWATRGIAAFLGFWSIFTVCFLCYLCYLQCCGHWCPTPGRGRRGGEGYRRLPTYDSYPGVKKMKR
# UniProt F5HCH8, residues 31-278: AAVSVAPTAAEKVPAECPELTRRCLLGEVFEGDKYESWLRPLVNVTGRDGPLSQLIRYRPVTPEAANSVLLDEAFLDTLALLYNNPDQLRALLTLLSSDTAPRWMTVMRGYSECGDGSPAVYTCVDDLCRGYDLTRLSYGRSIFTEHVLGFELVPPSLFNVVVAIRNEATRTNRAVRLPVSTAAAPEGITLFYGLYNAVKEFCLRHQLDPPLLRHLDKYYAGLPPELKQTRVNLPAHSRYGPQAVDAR
# UniProt F5HB53, residues 25-907: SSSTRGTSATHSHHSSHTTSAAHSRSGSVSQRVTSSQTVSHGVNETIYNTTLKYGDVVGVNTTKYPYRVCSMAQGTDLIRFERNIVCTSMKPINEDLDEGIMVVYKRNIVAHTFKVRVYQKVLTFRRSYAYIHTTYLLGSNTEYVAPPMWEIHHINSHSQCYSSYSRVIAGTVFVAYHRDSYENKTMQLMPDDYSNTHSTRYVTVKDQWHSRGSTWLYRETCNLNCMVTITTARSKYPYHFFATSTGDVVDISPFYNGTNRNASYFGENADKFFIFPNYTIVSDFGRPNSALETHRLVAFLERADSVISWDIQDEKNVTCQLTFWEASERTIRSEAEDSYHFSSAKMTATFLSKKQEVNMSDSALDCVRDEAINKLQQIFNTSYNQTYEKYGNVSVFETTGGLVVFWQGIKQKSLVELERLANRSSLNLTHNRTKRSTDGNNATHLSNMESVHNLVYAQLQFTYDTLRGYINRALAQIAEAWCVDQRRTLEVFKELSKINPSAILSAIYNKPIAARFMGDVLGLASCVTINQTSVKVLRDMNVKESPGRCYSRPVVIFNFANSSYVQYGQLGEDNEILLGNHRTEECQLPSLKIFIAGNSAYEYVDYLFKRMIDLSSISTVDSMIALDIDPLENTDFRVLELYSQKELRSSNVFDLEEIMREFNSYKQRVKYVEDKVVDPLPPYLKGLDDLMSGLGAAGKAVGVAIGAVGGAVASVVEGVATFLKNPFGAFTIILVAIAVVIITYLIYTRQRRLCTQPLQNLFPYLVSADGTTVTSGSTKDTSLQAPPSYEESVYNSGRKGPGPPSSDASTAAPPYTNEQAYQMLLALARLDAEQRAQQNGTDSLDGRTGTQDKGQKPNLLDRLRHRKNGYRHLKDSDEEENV
# UniProt Q6SW67, residues 24-742: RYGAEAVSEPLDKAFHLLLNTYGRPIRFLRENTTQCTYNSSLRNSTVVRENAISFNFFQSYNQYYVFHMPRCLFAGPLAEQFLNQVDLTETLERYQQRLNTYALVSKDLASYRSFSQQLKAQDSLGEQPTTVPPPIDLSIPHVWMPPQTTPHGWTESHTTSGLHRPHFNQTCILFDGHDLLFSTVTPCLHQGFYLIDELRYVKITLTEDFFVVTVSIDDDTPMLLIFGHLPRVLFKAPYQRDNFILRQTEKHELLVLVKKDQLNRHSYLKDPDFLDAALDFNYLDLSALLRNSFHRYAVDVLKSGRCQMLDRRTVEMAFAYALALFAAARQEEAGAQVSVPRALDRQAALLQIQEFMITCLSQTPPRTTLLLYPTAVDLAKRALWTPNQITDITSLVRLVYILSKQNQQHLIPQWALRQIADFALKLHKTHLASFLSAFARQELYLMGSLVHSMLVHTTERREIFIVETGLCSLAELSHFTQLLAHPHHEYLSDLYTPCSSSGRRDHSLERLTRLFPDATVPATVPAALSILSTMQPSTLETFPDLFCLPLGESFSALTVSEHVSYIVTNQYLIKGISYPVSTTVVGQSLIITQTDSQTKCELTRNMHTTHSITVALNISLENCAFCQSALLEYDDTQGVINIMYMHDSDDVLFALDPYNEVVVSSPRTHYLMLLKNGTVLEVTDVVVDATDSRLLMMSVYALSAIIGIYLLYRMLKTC
# Molecular target: gpUL141 with a C-terminal V5 tag, expressed from HCMV strain Merlin (Human cytomegalovirus (HCMV) strain Merlin) (UniProt Q6RJQ3)
# Assay: affinity purification with mass spectrometry; SILAC-IP: purified cell-free strain Merlin virions lacking UL128L, with gpUL141-V5 (Medium) or deleted for UL141 (Heavy), grown in HFFF; IP with a V5 antibody, MS, ratio between the two samples
row,Substance,binding
1,"gL, from HCMV strain Merlin (from UniProt F5HCH8 31-278)",binds
2,"gB, from HCMV strain Merlin (from UniProt F5HB53 25-907)",binds
3,"gH, from HCMV strain Merlin (from UniProt Q6SW67 24-742)",binds

# These are yes or no findings as the source states them, for the method shown. Binding seen in cells or lysates may run through a third protein. These calls come from enrichment with a bait or labelling near it, and not all partners need be listed.
